Tested on: MCF-7 breast cancer cell line
Experiment: MTT cytotoxicity assay, MCF-7 breast cancer cell line
Assay type: cell-based
Settings: Homo sapiens, MCF7, read-out: IC50 (μM) MCF-7
Method: The MTT colorimetric technique was used to evaluate the cytotoxic activity of the newly produced acrylamide–PABA hybrids 4a–j against the MCF-7 breast cancer cell line.
S4.2.1. Cytotoxic activity evaluation
To measure the cytotoxic actvity of the synthesized acrylamide-PABA derivatives 4a-j in breast MCF-7 (ATCC Cat. No. HTB-22), liver HepG2 (ATCC Cat No. HB-8065), and normal breast MCF-10A (ATCC Cat. No. CRL 10317) cell lines, cell viability assay was assessed using MTT assay method. Cells at density of 1 x 104 were seeded in a 96-well plate at 37 °C for 24 h under 5% CO2. After incubation, the cells were treated with different concentrations of the test acrylamide-PABA hybrids 4a-j and incubated for 24 h, then 20 µl of MTT solution at 5 mg/mL was applied and incubated for 4 h at 37 °C. Dimethyl sulphoxide (DMSO) in volume of 100 µl was added to each well to dissolve the purple formazan that had formed. The color intensity of the formazan product, which represents the growth condition of the cells, is quantified by using an ELISA plate reader (EXL 800, USA) at 570 nm absorbance. The experimental conditions were carried out with at least three replicates, and the experiments were repeated at least three times. […]

COc1cc2c(c(OC)c1OC)-c1ccc(OC)c(=O)cc1[C@@H](NC(C)=O)CC2 [Col, Colchicine, reference compound]
IC50: 3.54 ± 0.08 µM

Reference: article PMC12131314, “Design, synthesis and cytotoxic research of a novel antitumor model based on acrylamide–PABA analogs via β-tubulin inhibition” (RSC Advances, 2025)
